Test results from patent publication US6630516B2, “Methods and compositions for preventing and treating chronological aging in human skin” (The Regents of the University of Michigan, priority 1997, dated 2003).
At least one structure is not confirmed: it was looked up by name or label, or the drawing left a doubt.

Test system: cultured fibroblasts from sun-protected skin of volunteers over 80 years old
Assay: Induction of Type I collagen synthesis in cultured human skin fibroblasts
Type: cell-based
Conditions: cultured fibroblasts from seven volunteers over 80

## CC1=C(/C=C/C(C)=C/C=C/C(C)=C/C(=O)O)C(C)(C)CCC1 [retinoic acid]
0.25 μg/ml
  increase in relative expression of collagen from untreated cells: three fold
0.5 μg/ml
  increase in biosynthesis of collagen from untreated cells: five-fold
1.0 μg/ml
  increase in biosynthesis of collagen from untreated cells: five-fold
